# Results taken from paper PMC10780909.
# The chains behind the UniProt entries cited, without tags or fusion partners. Residues count along the entry.
# UniProt Q14449: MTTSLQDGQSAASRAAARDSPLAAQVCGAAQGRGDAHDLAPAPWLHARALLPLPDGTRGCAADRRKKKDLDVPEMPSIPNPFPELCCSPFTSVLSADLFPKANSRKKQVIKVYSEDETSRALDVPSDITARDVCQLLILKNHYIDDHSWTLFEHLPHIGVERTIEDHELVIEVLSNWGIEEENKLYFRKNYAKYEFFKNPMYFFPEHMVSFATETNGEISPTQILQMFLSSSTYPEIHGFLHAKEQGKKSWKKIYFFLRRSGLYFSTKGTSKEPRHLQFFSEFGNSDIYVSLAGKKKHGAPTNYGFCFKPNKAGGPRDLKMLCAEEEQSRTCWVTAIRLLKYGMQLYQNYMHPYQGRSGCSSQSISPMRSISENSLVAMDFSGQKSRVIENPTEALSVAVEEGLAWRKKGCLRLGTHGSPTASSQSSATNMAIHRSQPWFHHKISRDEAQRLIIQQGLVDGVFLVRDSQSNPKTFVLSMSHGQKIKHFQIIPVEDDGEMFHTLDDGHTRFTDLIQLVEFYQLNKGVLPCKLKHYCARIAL
# UniProt P06213, residues 28-1382: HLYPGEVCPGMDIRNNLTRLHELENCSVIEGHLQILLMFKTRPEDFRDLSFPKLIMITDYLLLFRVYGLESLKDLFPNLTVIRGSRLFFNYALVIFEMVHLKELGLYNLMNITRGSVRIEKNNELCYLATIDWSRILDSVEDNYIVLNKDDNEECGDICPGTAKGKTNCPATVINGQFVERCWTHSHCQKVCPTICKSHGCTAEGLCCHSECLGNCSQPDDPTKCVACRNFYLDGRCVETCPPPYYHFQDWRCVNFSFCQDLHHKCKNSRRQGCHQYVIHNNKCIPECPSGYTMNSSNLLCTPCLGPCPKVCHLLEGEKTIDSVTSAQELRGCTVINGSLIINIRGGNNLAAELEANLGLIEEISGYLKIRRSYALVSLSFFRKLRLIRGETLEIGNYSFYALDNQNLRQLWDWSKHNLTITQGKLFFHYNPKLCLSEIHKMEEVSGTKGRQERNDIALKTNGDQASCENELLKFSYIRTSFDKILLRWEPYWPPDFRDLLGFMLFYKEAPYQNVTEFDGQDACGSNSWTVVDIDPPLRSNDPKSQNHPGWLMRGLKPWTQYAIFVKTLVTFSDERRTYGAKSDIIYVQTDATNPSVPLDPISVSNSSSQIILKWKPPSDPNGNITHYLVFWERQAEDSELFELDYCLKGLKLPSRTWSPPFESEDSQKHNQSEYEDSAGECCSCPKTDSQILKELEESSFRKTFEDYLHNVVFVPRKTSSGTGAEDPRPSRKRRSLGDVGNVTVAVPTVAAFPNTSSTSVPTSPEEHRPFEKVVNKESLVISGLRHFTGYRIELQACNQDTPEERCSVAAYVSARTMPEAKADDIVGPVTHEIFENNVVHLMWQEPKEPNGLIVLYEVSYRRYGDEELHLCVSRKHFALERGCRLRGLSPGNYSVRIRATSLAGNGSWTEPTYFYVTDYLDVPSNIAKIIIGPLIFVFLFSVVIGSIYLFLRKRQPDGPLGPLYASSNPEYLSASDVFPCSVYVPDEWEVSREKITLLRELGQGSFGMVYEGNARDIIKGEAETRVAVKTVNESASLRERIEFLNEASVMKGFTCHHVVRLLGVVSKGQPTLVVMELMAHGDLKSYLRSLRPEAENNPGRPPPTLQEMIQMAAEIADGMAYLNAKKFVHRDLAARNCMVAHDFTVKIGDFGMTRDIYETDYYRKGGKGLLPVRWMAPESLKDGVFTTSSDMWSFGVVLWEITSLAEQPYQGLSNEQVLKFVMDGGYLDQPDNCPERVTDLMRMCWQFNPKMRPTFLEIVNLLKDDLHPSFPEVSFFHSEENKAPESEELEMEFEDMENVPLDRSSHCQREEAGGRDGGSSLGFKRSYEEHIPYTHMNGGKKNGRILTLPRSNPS
# These are yes or no findings as the source states them, for the method shown. Some results given as binding are weak or reduced against the parent protein; the word gives no strength.
# Biological target: growth factor receptor-bound protein 14 (Grb14) (human) (UniProt Q14449)
# Experiment: co-IP; Grb14 immobilised on agarose-conjugated Anti-V5-Tag beads from COS-7 lysate and washed; WGA (Glycoprotein Isolation Kit) purified IR added with 2% DMSO or compound 2 (200 µg/mL), 4 °C overnight; lysis buffer 50 mM Tris-HCl pH 7.4, 150 mM NaCl, 1% Triton X-100; bound IRβ detected by …; both purified
substance,measurement,value
insulin receptor (IR) (from UniProt P06213 28-1382),binding,binds
